The list shows a part of the results. Most values lie at the level of the controls, where differences are scatter.

By UniProt entry, the sequences of proteins in these tests, tags left out. Where a name states a change or a piece, a line headed by the entry shows the natural chain unless it says otherwise.
UniProt Q8R121: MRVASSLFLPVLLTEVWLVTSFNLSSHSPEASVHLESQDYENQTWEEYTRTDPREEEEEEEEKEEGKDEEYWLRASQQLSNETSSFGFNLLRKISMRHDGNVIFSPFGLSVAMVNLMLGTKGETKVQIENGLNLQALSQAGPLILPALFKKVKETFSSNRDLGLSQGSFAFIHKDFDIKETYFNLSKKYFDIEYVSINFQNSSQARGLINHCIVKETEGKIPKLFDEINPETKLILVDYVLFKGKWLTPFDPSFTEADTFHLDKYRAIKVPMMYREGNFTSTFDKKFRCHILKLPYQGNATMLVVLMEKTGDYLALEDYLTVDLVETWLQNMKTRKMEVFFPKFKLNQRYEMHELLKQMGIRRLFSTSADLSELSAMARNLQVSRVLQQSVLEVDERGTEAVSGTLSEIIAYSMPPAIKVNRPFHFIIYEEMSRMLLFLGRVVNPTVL
UniProt Q8R088: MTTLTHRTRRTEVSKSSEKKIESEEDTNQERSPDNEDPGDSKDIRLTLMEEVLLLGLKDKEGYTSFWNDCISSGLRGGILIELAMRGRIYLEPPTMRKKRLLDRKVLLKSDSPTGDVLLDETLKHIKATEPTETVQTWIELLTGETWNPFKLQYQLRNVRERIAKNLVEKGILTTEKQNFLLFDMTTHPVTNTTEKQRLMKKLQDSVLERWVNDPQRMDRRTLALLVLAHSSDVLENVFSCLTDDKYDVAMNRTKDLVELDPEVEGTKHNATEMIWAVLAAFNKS
UniProt Q8K215: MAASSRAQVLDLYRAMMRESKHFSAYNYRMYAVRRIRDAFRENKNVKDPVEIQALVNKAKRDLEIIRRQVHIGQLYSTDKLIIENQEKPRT
UniProt Q8K201: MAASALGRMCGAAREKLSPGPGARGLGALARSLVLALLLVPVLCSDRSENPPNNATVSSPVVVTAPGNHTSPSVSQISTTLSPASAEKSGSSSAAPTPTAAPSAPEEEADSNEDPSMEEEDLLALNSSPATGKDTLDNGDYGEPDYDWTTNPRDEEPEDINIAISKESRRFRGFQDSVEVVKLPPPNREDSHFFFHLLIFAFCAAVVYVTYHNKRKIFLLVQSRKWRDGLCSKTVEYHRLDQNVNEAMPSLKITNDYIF
UniProt Q8K339: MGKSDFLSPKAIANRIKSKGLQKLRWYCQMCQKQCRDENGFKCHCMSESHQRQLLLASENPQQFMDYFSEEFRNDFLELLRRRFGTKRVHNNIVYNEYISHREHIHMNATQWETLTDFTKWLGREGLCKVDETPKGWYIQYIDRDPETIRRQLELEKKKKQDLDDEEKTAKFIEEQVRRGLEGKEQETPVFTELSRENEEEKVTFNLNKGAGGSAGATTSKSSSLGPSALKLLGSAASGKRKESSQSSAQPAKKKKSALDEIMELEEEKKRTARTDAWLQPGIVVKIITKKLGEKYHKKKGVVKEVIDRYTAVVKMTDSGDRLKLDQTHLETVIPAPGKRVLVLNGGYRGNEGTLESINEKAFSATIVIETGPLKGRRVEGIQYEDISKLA
UniProt Q8K1N4: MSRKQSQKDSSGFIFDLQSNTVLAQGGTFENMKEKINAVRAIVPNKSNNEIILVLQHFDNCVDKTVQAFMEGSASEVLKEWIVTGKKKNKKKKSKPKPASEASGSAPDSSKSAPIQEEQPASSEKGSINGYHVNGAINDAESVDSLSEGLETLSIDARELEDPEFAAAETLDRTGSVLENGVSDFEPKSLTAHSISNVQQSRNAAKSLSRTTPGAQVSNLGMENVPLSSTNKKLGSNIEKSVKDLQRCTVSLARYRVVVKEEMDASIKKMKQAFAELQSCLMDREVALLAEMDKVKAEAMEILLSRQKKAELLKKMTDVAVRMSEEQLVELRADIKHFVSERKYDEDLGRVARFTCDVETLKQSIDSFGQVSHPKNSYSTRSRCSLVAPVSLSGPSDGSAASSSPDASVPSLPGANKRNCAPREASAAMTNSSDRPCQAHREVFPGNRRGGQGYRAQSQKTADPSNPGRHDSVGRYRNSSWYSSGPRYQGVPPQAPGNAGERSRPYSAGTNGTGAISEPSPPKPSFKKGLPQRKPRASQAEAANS
UniProt Q8R2K4: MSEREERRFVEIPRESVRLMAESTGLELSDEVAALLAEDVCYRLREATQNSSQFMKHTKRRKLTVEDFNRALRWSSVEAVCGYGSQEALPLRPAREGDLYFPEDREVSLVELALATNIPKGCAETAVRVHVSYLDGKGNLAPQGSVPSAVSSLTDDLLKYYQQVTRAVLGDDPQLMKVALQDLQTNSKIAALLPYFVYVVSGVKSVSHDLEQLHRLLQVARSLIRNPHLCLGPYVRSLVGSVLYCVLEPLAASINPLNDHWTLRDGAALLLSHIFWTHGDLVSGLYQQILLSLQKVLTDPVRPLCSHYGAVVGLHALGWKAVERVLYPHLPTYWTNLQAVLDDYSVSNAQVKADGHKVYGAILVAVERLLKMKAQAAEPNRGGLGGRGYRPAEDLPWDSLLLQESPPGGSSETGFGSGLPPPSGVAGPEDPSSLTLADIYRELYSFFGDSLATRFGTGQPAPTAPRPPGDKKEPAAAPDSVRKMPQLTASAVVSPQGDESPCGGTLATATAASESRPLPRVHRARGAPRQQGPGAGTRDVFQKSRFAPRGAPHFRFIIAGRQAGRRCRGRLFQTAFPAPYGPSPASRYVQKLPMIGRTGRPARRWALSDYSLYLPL
UniProt Q8K284: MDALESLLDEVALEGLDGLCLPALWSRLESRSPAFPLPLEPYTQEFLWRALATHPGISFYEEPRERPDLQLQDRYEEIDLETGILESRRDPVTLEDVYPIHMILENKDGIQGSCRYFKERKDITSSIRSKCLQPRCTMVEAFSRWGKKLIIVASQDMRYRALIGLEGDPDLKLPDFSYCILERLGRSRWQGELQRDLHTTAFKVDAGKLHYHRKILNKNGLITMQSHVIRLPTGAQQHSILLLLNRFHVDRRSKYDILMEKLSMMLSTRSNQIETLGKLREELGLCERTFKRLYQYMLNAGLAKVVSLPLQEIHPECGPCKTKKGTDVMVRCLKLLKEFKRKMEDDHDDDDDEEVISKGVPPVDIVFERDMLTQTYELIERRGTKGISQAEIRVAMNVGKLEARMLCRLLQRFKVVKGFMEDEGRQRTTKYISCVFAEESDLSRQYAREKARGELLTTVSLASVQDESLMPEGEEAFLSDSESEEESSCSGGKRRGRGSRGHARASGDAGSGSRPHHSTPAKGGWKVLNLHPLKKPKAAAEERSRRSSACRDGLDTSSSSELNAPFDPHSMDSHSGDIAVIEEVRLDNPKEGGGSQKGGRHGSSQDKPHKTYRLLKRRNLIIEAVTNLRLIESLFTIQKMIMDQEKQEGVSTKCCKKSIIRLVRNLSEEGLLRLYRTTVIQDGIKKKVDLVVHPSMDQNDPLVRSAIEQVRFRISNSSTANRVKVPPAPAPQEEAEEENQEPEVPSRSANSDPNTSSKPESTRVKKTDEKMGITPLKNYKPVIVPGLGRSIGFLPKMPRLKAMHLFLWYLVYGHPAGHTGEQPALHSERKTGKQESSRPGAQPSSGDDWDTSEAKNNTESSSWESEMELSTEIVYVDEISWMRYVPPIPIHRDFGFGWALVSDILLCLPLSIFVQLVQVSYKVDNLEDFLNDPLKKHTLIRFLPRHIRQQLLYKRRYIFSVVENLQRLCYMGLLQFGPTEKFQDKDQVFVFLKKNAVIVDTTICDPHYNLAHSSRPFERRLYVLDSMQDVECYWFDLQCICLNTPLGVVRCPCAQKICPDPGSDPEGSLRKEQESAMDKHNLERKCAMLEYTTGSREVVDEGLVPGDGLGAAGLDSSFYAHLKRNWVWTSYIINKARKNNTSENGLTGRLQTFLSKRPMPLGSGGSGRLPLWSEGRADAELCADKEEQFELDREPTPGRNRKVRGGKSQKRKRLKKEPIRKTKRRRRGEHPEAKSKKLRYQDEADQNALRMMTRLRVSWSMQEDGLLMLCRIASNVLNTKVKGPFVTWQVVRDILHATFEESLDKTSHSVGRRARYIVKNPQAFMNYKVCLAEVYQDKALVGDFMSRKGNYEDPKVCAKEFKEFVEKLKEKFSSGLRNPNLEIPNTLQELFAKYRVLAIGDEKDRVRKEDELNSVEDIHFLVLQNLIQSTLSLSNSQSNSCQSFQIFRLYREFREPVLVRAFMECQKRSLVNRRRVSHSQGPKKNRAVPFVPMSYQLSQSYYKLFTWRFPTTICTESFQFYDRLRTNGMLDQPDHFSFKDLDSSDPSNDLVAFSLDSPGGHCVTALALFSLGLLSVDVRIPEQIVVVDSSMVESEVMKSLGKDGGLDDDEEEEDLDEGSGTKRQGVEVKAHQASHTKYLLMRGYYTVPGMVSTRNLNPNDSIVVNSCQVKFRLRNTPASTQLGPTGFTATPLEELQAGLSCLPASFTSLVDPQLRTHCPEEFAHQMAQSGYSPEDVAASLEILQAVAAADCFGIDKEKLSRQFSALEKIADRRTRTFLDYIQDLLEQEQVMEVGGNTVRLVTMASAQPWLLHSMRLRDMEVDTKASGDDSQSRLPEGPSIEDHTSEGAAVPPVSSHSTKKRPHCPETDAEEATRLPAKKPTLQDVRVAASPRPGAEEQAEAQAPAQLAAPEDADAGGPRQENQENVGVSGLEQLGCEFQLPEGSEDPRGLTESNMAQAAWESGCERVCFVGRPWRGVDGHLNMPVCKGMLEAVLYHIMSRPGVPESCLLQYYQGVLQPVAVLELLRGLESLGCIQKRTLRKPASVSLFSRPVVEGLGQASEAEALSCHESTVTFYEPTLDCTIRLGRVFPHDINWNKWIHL
UniProt Q8K2Z2: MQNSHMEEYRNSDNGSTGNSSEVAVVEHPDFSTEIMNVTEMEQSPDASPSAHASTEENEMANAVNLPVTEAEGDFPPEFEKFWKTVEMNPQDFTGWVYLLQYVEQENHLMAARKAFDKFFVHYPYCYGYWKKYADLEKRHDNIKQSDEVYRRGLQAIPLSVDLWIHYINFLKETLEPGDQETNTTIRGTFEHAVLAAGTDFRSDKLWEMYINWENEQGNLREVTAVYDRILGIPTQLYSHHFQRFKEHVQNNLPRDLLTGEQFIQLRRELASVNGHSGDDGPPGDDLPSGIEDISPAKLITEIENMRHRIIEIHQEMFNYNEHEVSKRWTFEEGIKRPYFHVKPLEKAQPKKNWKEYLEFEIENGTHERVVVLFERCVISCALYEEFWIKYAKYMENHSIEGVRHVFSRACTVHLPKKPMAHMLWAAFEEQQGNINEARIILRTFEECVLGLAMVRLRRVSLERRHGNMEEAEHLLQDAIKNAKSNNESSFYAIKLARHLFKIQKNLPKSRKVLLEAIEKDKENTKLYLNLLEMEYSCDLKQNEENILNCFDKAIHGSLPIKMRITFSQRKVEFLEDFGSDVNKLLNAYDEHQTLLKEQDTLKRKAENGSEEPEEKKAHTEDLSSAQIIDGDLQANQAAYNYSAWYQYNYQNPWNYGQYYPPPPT
UniProt Q8K221: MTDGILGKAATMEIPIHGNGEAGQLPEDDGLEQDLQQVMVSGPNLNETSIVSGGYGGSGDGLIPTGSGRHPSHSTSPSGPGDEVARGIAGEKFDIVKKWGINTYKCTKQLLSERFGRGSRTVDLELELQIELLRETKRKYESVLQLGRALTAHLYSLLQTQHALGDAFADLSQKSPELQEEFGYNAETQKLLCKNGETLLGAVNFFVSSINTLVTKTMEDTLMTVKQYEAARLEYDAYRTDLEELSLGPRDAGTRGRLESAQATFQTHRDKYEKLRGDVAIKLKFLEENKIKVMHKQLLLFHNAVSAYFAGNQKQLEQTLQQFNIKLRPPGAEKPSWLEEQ
UniProt Q8K4R4: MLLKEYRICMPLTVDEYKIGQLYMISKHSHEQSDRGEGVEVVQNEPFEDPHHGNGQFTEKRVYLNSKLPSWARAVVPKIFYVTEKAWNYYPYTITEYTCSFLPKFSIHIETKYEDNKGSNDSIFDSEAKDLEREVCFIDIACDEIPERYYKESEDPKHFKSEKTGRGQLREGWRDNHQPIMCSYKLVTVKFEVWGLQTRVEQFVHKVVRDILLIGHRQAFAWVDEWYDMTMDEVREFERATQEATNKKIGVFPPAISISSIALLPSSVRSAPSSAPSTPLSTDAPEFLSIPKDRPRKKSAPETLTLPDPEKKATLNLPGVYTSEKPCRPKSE

Compound in the assay: CN[C@@H]1C[C@H]2O[C@@](C)([C@@H]1OC)n1c3ccccc3c3c4c(c5c6ccccc6n2c5c31)C(=O)NC4 [staurosporine]
As to the kind of experiment: log2 fold change of tryptic peptide abundance, ligand vs vehicle (limited proteolysis) (log2 ratio); higher = more trypsin-susceptible (destabilized). Conditions: ligand concentration: 20 uM; sample: mouse liver crude lysate; replicate design: treated separately.
On to “UniProt Q8R121 (peptide sequence: KMEVFFPK, peptide start residue: 336)”, for which the log2 fold change is -0.161.

On to “UniProt Q8R088 (peptide sequence: IYLEPPTMR, peptide start residue: 89)”, for which the log2 fold change was -0.239.

As for “UniProt Q8K215 (peptide sequence: DLEIIRR, peptide start residue: 62)”, the log2 fold change was 0.867.

With “UniProt Q8K201 (peptide sequence: GFQDSVEVVK, peptide start residue: 173)”, the log2 fold change is -0.0253.

In the case of “UniProt Q8K339 (peptide sequence: SALDEIMELEEEKKR, peptide start residue: 257)”, the log2 fold change was -0.195.

As to “UniProt Q8K1N4 (peptide sequence: SKPKPASEASGSAPDSSK, peptide start residue: 94)”, the log2 fold change is -0.147.

In the case of “UniProt Q8R2K4 (peptide sequence: QQGPGAGTR, peptide start residue: 530)”, the log2 fold change came to 0.191.

Turning to “UniProt Q8K284 (peptide sequence: DILHATFEESLDKTSHSVGR, peptide start residue: 1293)”, the log2 fold change worked out at 0.497.

Turning to “UniProt Q8K2Z2 (peptide sequence: KAENGSEEPEEKK, peptide start residue: 605)”, the log2 fold change was -1.04.

For the target “UniProt Q8K221 (peptide sequence: LRPPGAEKPSWLEEQ, peptide start residue: 327)”, the log2 fold change was -0.725.

Consider “UniProt Q8K4R4 (peptide sequence: ATLNLPGVYTSEKPCRPK, peptide start residue: 313)”, for which the log2 fold change was -0.0934.

(Values after the supplement of paper PMC12819154, “High-throughput peptide-centric local stability assay extends protein–ligand identification to membrane proteins, tissues and bacteria” (Nature Structural & Molecular Biology, 2025).)
